The exact form of at least one protein or probe is not confirmed. For some assays here: A weaker result is weaker than the reference pair of the same experiment.
What was measured:
[1] = molecular target: ACE1 R383Q-DB (UniProt G0RCC6); test: EMSA; conditions: 1.5 uM protein does not completely bind 60 ng probe; EMSA: 30 or 60 ng Cy5 probe, reaction buffer (composition not given), 20 min, 25 C, native PAGE; recombinant protein; residues 317-528; protein details: GST; label: Cy5; probe letters rebuilt from the primers and the genome
[2] = molecular target: XYR1-DB (UniProt G0RLE8); test: EMSA; conditions: 0.5 uM XYR1-DB, specific XYR1-DNA complex, more distinct in competition with ACE1 R383Q-DB than with ACE1-DB; EMSA: 30 or 60 ng Cy5 probe, reaction buffer (composition not given), 20 min, 25 C, native PAGE; recombinant protein; residues 55-195; label: Cy5; probe letters rebuilt from the primers and the genome

Chains of the proteins cited; added tags and fusions are not shown.
UniProt G0RLE8, entry or part of it: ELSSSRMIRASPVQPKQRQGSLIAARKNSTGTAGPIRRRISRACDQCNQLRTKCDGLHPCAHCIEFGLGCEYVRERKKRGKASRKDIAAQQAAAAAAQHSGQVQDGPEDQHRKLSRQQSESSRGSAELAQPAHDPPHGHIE

## ACTAACTCGCGTACTGATGAGTAGATGGGGAGAGCATGAGGGAGGCACGGACCTCGAACCTTTATATATACACATTCGCTGACTTTGCCTACTAGCTCATTCCGTTTAATGAGGCTATCTTTATCGGCTATTGTTCTTGGCTAAGCTTCTCTTTCTATTCGAAACCATGCAGTGGCCCCTGAACATTTGCCTATCACATACCCTCAGCTGCTTGGTAAAGGCAGCAGTGTGTTCGATCCTACCACACTTTGCATTTGCCCGGAGCACAAACATGTACACCCAAAGGCCGAAGGCCCGAGGGCCCGAGATCTTAGGCAGTTTCAACTCAATCTTTTGCCTGTTCAGTGCCGACTTACATCAGTACGCGAGTTAGT (double strand) [cbh1-P3]
[1]
  binding result: binds more weakly
[2]
  binding result: binds

Source: publication PMC10978942
